Values from PubChem BioAssay AID1259405 (NCATS, 2018).

- Test: 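Silenced genes that increase secreted GFP made by CHO cells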 (primary screen)
- System: Chinese hamster CHO-K1 ovary cells with stable secreted eGFP expression
- Knock-down reagent: single siRNA against mouse genes, 0.8 pmol siRNA per well (2 µl of 400 nM stock)
- Time to read-out: 3 days
- Read-out: 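Per-well intracellular GFP measured by laser scanning cytometry, plus viability from ATP luminescence, each relative to plate median of non-targeting control wells, in %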
- Direction: GFP, % of control: higher = more GFP per well, higher productivity; viability (ATP), % of control: higher = more viable cells (more ATP)
- Hit rule: 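Called active when intracellular GFP, relative to negative control, is at or above 120%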
The whole screen tested about 50,000 reagents; this is an unselected part. In the full data, about 4,000 (8%) got an active call. 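Mouse siRNA library applied to hamster cells; one well for each siRNA.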 Reagents against one gene are numbered here.

Target gene | reagent | GFP, % of control | viability (ATP), % of control | outcome
Brpf1 (GeneID 78783) | 1 | 63.8 | 63.8 | inactive
Brpf1 (GeneID 78783) | 2 | 73.2 | 80.1 | inactive
Brpf1 (GeneID 78783) | 3 | 91.6 | 99.4 | inactive
Kctd19 (GeneID 279499) | 1 | 69.8 | 58.1 | inactive
Kctd19 (GeneID 279499) | 2 | 110 | 101 | inactive
Kctd19 (GeneID 279499) | 3 | 95.1 | 70.3 | inactive
Snx6 (GeneID 72183) | 1 | 73.7 | 75.9 | inactive
Snx6 (GeneID 72183) | 2 | 93 | 84.6 | inactive
Snx6 (GeneID 72183) | 3 | 88.4 | 71.1 | inactive
Ecm2 (GeneID 407800) | 1 | 75.3 | 56.3 | inactive
Ecm2 (GeneID 407800) | 2 | 81.4 | 79.9 | inactive
Ecm2 (GeneID 407800) | 3 | 86.2 | 66.8 | inactive
Isca1 (GeneID 69046) | 1 | 52 | 64.9 | inactive
Isca1 (GeneID 69046) | 2 | 126 | 71 | active
Isca1 (GeneID 69046) | 3 | 92.3 | 82.9 | inactive
Itgb6 (GeneID 16420) | 1 | 90.9 | 73 | inactive
Itgb6 (GeneID 16420) | 2 | 94.4 | 66.9 | inactive
Itgb6 (GeneID 16420) | 3 | 81.3 | 87.6 | inactive
Ccnq (GeneID 69109) | 1 | 141 | 82.8 | active
Ccnq (GeneID 69109) | 2 | 62.3 | 73.5 | inactive
Ccnq (GeneID 69109) | 3 | 109 | 92.5 | inactive

Hits (from the list above):
Target gene | reagent | GFP, % of control | viability (ATP), % of control | outcome
Isca1 (GeneID 69046) | 2 | 126 | 71 | active
Ccnq (GeneID 69109) | 1 | 141 | 82.8 | active

Continued.
Target gene | reagent | GFP, % of control | viability (ATP), % of control | outcome
Prss32 (GeneID 69814) | 1 | 118 | 121 | inactive
Prss32 (GeneID 69814) | 2 | 30.6 | 56.6 | inactive
Prss32 (GeneID 69814) | 3 | 55.8 | 71.4 | inactive
Pde6c (GeneID 110855) | 1 | 108 | 79.2 | inactive
Pde6c (GeneID 110855) | 2 | 91.6 | 75.7 | inactive
Pde6c (GeneID 110855) | 3 | 53.9 | 90.5 | inactive
Wfdc12 (GeneID 192200) | 1 | 63.4 | 73.9 | inactive
Wfdc12 (GeneID 192200) | 2 | 62.3 | 82.2 | inactive
Wfdc12 (GeneID 192200) | 3 | 78 | 103 | inactive
Srrm1 (GeneID 51796) | 1 | 124 | 83 | active
Srrm1 (GeneID 51796) | 2 | 55.5 | 59.1 | inactive
Ydjc (GeneID 69101) | 1 | 65.8 | 55.2 | inactive
Ydjc (GeneID 69101) | 2 | 35.3 | 22.4 | inactive
Ydjc (GeneID 69101) | 3 | 89.4 | 89.5 | inactive
